Test results: PubChem BioAssay AID1259354 (Paczesny and Yang Labs, IUPUI and University of Michigan, 2018)
The campaign covered roughly 78,000 compounds. About 1,800 (2.3%) were called active. Inconclusive means that the source gave no clear call. Such entries were picked first, then a sample of the others. Rule as the data show it: active = inhibition above about 30%; inconclusive = mostly about 10% to 28%; inactive = weaker than that.

By UniProt entry, the sequences of proteins in these tests, tags left out. Where a name states a change or a piece, a line headed by the entry shows the natural chain unless it says otherwise.
UniProt Q01638: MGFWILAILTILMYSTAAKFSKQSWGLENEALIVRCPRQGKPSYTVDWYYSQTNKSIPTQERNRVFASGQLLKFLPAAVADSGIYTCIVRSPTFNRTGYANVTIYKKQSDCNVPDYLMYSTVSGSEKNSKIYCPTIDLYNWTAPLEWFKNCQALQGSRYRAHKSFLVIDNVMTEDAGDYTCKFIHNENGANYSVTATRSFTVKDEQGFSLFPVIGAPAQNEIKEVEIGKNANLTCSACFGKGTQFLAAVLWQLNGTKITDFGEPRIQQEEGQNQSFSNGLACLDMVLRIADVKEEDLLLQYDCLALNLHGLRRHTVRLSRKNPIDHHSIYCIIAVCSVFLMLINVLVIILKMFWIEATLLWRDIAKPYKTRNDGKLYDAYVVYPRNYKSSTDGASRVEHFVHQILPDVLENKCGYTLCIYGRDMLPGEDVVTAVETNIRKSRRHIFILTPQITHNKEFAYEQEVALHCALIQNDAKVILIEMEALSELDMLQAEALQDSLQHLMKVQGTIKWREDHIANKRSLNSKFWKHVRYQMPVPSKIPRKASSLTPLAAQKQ

Target: Interleukin-1 receptor-like 1 (Homo sapiens) (UniProt Q01638)
Assay: blocks human ST2 binding to IL-33, primary screen, biochemical, AlphaLISA (AID 1259354)
Details: AlphaLISA ST2-Fc/biotin-IL-33 interaction, 1 h; at 17 µM, hits give high values

SMILES | inhibition
COc1cc(OC)c2c(c1/C=C/C(C)(C)O)O[C@H](c1ccccc1)CC2=O | inactive
CCOc1ccc(S(=O)(=O)N(C(C)=O)c2ccc3oc4c(c3c2)CCCC4)cc1 | inconclusive: 10%
Cc1nn(CCCC(=O)Nc2cc(Oc3ccccc3)cc([N+](=O)[O-])c2)c(C)c1[N+](=O)[O-] | inconclusive: 16%
COc1cc(C2C=C(Nc3ccccc3)C(=O)N2c2ccccc2)ccc1O (stereo not given) | inconclusive: 23%
CC(=O)c1cccc(NS(=O)(=O)c2cccc3cccnc23)c1 | inactive
CC(=O)NC1C(OC2CCC3(C)C(CCC4(C)C3CC=C3C5CC(C)(C)CCC5(C(=O)OC5OC(CO)C(O)C(O)C5O)CCC34C)C2(C)C)OC(COC2OCC(O)C(O)C2OC2OCC(O)C(O)C2O)C(O)C1O (stereo not given) | inconclusive: 16%
COCC1(C(=O)N(C)CCc2scnc2C)CCC1 | inconclusive: 15%
CCC(C)NC(=O)COc1ccc2c(c1)C(=O)CC(C)(C)O2 (stereo not given) | inconclusive: 21%
COc1ccc(C2C(C(=O)OC3CCCC3)=C(C)NC3=C2C(=O)CC(C)(C)C3)c(OC)c1 (stereo not given) | inactive
CCOc1ccc2sc(N3C(=O)c4ccc(OC)c(OC)c4C3=O)nc2c1 | inactive
Cc1cc(F)ccc1NC(=O)CCC1CCCN(C(=O)c2ccoc2)C1 (stereo not given) | inconclusive: 15%
O=c1oc(/C=C/c2cccs2)nc2sc3c(c12)CCCC3 | inactive
O=C(Nc1ccc(Cl)cc1)C(O)(c1ccccc1)c1ccccc1 | inconclusive: 20%
CC1(C)Cc2ccccc2C(C2=NC(C)(C)Cc3ccccc32)=N1 | inconclusive: 13%
CCC(C)NC(=O)CN1C(=O)/C(=C/c2ccccc2F)Sc2ccccc21 (stereo not given) | inconclusive: 16%
O=C(Nc1c(C(=O)Nc2ccc(F)cc2)oc2ccccc12)c1ccc(F)c(F)c1 | inactive
Cc1cccc(CCNC(=O)c2cccn3c(=O)c4c5c(sc4nc23)CCCC5)c1 | inconclusive: 16%
CCOC(=O)Cn1c(=O)oc2cc(Cl)ccc21 | inactive
CC(C)(C)c1ccc(C(=O)Nc2c3c(nn2-c2cccc(Cl)c2)CS(=O)C3)cc1 (stereo not given) | inconclusive: 25%
CCC(=O)Nc1cccc(C(=O)NCCCc2ccncc2)c1 | inactive
CCCCOc1ccc(OC(=O)Cn2cnc3sc4c(c3c2=O)CCCC4)cc1 | inactive
COC(=O)c1ccc(C2SCC(=O)N2Cc2ccccc2)cc1 (stereo not given) | inconclusive: 20%
Cc1cccc(C)c1NC(=O)Nc1ccccc1 | inactive
O=C1NOC(c2ccc(O)cc2)(c2ccc(O)cc2)c2ccccc21 | inconclusive: 21%

SMILES | inhibition
O=C(c1ccccc1Br)N1CCCCC1 | inconclusive: 14%
COc1cc(NS(=O)(=O)c2ccc(NC(=O)Cc3ccccc3)cc2)ncn1 | inactive
O=C1NCC2(CCCN(C(=O)Cc3cccnc3)CC2)O1 (stereo not given) | inconclusive: 15%
COc1ccccc1-n1nc(CC(C)C)nc1CCn1c(C)cc(C)nc1=O | inactive
Cc1cccc(NCN2C(=O)c3cccc([N+](=O)[O-])c3C2=O)c1 | inactive
CC(=O)NC1c2ccccc2Oc2ccccc21 | inactive
Cc1ccccc1NC(=O)c1cccc(S(=O)(=O)Nc2cccc([N+](=O)[O-])c2)c1 | inactive
Cc1cc(C)n(-c2cc(N3CC(C)OC(C)C3)ccc2[N+](=O)[O-])n1 (stereo not given) | inactive
CCN(CC)C(=O)C(C)N(C#N)c1nc(NC(C)C)nc(NC(C)C)n1 (stereo not given) | inconclusive: 16%
COc1ccc(-c2cc(N3CCN(S(=O)(=O)c4ccc(NC(C)=O)cc4)CC3)ncn2)cc1 | inactive
COc1cc(CN2CCN(c3cccc(Cl)c3)CC2)c([N+](=O)[O-])cc1OC | inconclusive: 18%
C=CC[C@@H]1CC=C[C@@H](C)N1Cc1nc(-c2ccc(C(=O)OC)cc2)no1 | inconclusive: 21%
COc1ccc(-c2nc3cc(C)ccc3o2)cc1N=Cc1cc([N+](=O)[O-])cc(OC)c1O | inconclusive: 14%
COc1ccc(CCNS(=O)(=O)c2ccc(N3CCCC3=O)cc2)cc1 | inconclusive: 15%
O=C(CCN1CCCO1)NCc1ccc2[nH]c3c(c2c1)CCCCC3 | inactive
O=C(c1cnccn1)N(Cc1ccccn1)CC1CCCO1 (stereo not given) | inconclusive: 17%
Cn1c(=O)cc(SCC(=O)NC2CCCCCC2)c2ccc(Cl)cc21 | inactive
C[C@]12C=CC(=O)C=C1CC[C@H]1[C@@H]3C[C@@H](O)[C@](O)(C(=O)CO)[C@@]3(C)C[C@H](O)[C@@]12F | inconclusive: 11%
O=C(NCc1cccs1)c1cc(=O)[nH]c2ccc(S(=O)(=O)N3CCCCCC3)cc12 | inactive
CCC(C)C1N=C2c3ccccc3N=C(SCc3cc(=O)n4ccccc4n3)N2C1=O (stereo not given) | inactive
COc1cccc(CNC(=O)CCC2CCCN(C(=O)c3snnc3C)C2)c1 (stereo not given) | inconclusive: 13%
Cc1ccsc1C(=O)C1CCCN(Cc2c(C)n(C)n(-c3ccccc3)c2=O)C1 (stereo not given) | inactive
COc1ccc(N=c2scc(-c3ccc(I)cc3)n2CCO)cc1 | active: 55%
CC(C)N(Cc1nccn1C)C(=O)c1ccc2oc(CCc3ccccc3)nc2c1 | inactive

In another format: results already given
SMILES	inhibition
CC(C)(C)c1ccc(C(=O)Nc2c3c(nn2-c2cccc(Cl)c2)CS(=O)C3)cc1 (stereo not given)	inconclusive: 25%
CCC(=O)Nc1cccc(C(=O)NCCCc2ccncc2)c1	inactive
CCCCOc1ccc(OC(=O)Cn2cnc3sc4c(c3c2=O)CCCC4)cc1	inactive
COC(=O)c1ccc(C2SCC(=O)N2Cc2ccccc2)cc1 (stereo not given)	inconclusive: 20%
Cc1cccc(C)c1NC(=O)Nc1ccccc1	inactive
O=C1NOC(c2ccc(O)cc2)(c2ccc(O)cc2)c2ccccc21	inconclusive: 21%
O=C(c1ccccc1Br)N1CCCCC1	inconclusive: 14%
COc1cc(NS(=O)(=O)c2ccc(NC(=O)Cc3ccccc3)cc2)ncn1	inactive
O=C1NCC2(CCCN(C(=O)Cc3cccnc3)CC2)O1 (stereo not given)	inconclusive: 15%
COc1ccccc1-n1nc(CC(C)C)nc1CCn1c(C)cc(C)nc1=O	inactive
Cc1cccc(NCN2C(=O)c3cccc([N+](=O)[O-])c3C2=O)c1	inactive
CC(=O)NC1c2ccccc2Oc2ccccc21	inactive
Cc1ccccc1NC(=O)c1cccc(S(=O)(=O)Nc2cccc([N+](=O)[O-])c2)c1	inactive
Cc1cc(C)n(-c2cc(N3CC(C)OC(C)C3)ccc2[N+](=O)[O-])n1 (stereo not given)	inactive
CCN(CC)C(=O)C(C)N(C#N)c1nc(NC(C)C)nc(NC(C)C)n1 (stereo not given)	inconclusive: 16%
COc1ccc(-c2cc(N3CCN(S(=O)(=O)c4ccc(NC(C)=O)cc4)CC3)ncn2)cc1	inactive
COc1cc(CN2CCN(c3cccc(Cl)c3)CC2)c([N+](=O)[O-])cc1OC	inconclusive: 18%
C=CC[C@@H]1CC=C[C@@H](C)N1Cc1nc(-c2ccc(C(=O)OC)cc2)no1	inconclusive: 21%
COc1ccc(-c2nc3cc(C)ccc3o2)cc1N=Cc1cc([N+](=O)[O-])cc(OC)c1O	inconclusive: 14%
COc1ccc(CCNS(=O)(=O)c2ccc(N3CCCC3=O)cc2)cc1	inconclusive: 15%
O=C(CCN1CCCO1)NCc1ccc2[nH]c3c(c2c1)CCCCC3	inactive
O=C(c1cnccn1)N(Cc1ccccn1)CC1CCCO1 (stereo not given)	inconclusive: 17%
Cn1c(=O)cc(SCC(=O)NC2CCCCCC2)c2ccc(Cl)cc21	inactive
C[C@]12C=CC(=O)C=C1CC[C@H]1[C@@H]3C[C@@H](O)[C@](O)(C(=O)CO)[C@@]3(C)C[C@H](O)[C@@]12F	inconclusive: 11%
O=C(NCc1cccs1)c1cc(=O)[nH]c2ccc(S(=O)(=O)N3CCCCCC3)cc12	inactive
CCC(C)C1N=C2c3ccccc3N=C(SCc3cc(=O)n4ccccc4n3)N2C1=O (stereo not given)	inactive
COc1cccc(CNC(=O)CCC2CCCN(C(=O)c3snnc3C)C2)c1 (stereo not given)	inconclusive: 13%
Cc1ccsc1C(=O)C1CCCN(Cc2c(C)n(C)n(-c3ccccc3)c2=O)C1 (stereo not given)	inactive

Later entries

SMILES | inhibition
CCOc1cc(C2C(C#N)=C(N)Oc3cc(C)oc(=O)c32)cc([N+](=O)[O-])c1O (stereo not given) | inactive
O=C(c1cccc2cnccc12)N1CCC(C(O)c2cccs2)CC1 (stereo not given) | inconclusive: 19%
COc1ccc2cc3cc(C(=O)NC4CCCCCC4)oc3nc2c1 | inconclusive: 15%
O=C(C1=Cc2cc(Cl)ccc2OC1)N1CC[C@H](CO)[C@@H](O)C1 | inconclusive: 22%
Cc1ccc(S(=O)(=O)N=C(c2ccc(F)cc2)N(C)C)cc1 | inconclusive: 16%
O=C(NCc1ccc(Cl)cc1)c1cccn1-c1nnc(N2CCCCC2)s1 | inactive
COc1ncc(C(=O)N2CCCN(Cc3cccs3)CC2)cn1 | inconclusive: 13%
COc1cccc(NS(=O)(=O)c2ccc(Cl)s2)c1 | inactive
COC(=O)C1C(=O)C2=C(CC1C)NC(C)=C(C(=O)OC(C)C)C2c1cccc(O)c1 (stereo not given) | inactive
CCOC(=O)CSC1=C(C#N)C(c2cccc(Cl)c2Cl)CC(=O)N1 (stereo not given) | inconclusive: 13%
CCc1[nH]nc(C(=O)NC2CCCN(CC3CCCCC3)C2)c1C (stereo not given) | inconclusive: 12%
O=C(c1ccno1)N1C[C@@H]2OCC(=O)N(Cc3cccnc3)[C@@H]2C1 | inconclusive: 12%
CCn1ncc2c1NC(=O)CC2c1cc(OC)c(OC)c(OC)c1 (stereo not given) | inconclusive: 14%
O=C(Nc1cccc2nsnc12)c1cncc(Br)c1 | inactive
CC(=O)OCC12COC(c3ccc(N(C)C)cc3)C(C(C)=CC1C)C2C (stereo not given) | inconclusive: 28%
O=C(CCc1ccc2c(c1)OCO2)N1CCOC(Cc2ccccc2)C1 (stereo not given) | inactive
CCCCC1CN(CCNC(=O)c2cccc(N3CCNC3=O)c2)Cc2ccccc2O1 (stereo not given) | inactive
O=C(COc1ccc(Cl)cc1)c1ccc(O)cc1O | inconclusive: 18%
CS(=O)(=O)Nc1nc2ccc(Cl)cc2s1 | inactive
CC(C)(C)n1cnc2cc(NCc3ccccn3)ccc21 | inactive
O=c1[nH]nc(C2CCC2)n1-c1ccc2c(c1)OCO2 | inconclusive: 16%
CCn1ccc(C(=O)N2CCCC(CCc3ccccc3C(F)(F)F)C2)n1 (stereo not given) | inconclusive: 25%
CC(Nc1ccc(Cl)cc1N)c1ccccc1 (stereo not given) | active: 57%
COc1ccc2cc3cc(C(=O)NCCCN4CCCC4=O)oc3nc2c1 | inconclusive: 10%

SMILES | inhibition
Cc1cnccc1NCCNC(=O)c1cn(CC2CCCNC2)nn1 (stereo not given) | inactive
CCc1ccccc1NC(=O)CN(c1ccc(Br)cc1)S(C)(=O)=O | inactive
CN(Cc1ccc2ccccc2n1)C(=O)c1ccc(N(C)C)nc1 | inconclusive: 11%
COc1ccccc1OCCCOc1ccc(/C=C2/C(=N)N3C=CSC3=NC2=O)cc1OC | active: 34%
CCN(CC)CCCOc1ccc(C)cc1 | inactive
CC[C@H]1CN(C(C)=O)CC[C@H]1CC(=O)NCc1ccccc1OC | inconclusive: 20%
O=c1c(CN2CCN(Cc3ccc4c(c3)OCO4)CC2)coc2ccccc12 | inconclusive: 18%
CCOC(=O)c1cnn(-c2nc(C)nc3sc(-c4ccccc4)cc23)c1N=CN(C)C | inactive
O=C(NCc1ccc(Cl)cc1)NCC1CNCCOC1 (stereo not given) | inactive
O=c1c2cnn(-c3ccccc3)c2ncn1Cc1cccc(F)c1 | inconclusive: 11%
CCn1ccnc1CN(C)C(=O)CCNC(=O)c1ccccc1F | inconclusive: 10%
Cc1ccc(Cn2cc(/C=C(/C#N)C(=O)NCC3CCCO3)c3ccccc32)cc1 (stereo not given) | inconclusive: 28%
C=CCSc1nnc2c(n1)OC(c1ccc(C(=O)O)cc1)N(C(C)=O)c1ccccc1-2 (stereo not given) | inconclusive: 13%
O=C(c1csc(-c2cccnc2)n1)N1C[C@@H]2[C@@H]3CC[C@@H](C3)[C@@H]2C1 | inactive
Cc1cc(C)cc(C(=O)N(c2ccc(C)c(C)c2)C2C=CS(=O)(=O)C2)c1 (stereo not given) | inactive
Cc1ccccc1Nc1nnc(C(C)(C)C)c(=O)[nH]1 | inconclusive: 10%
Cc1csc(C(C)N(C)C(=O)c2cnn(-c3ncc(C)c(-c4ccc(F)cc4)n3)c2C(C)C)n1 (stereo not given) | inconclusive: 29%
Cc1nn(CCCC(=O)Nc2sc3c(c2C#N)CCCC3)c(C)c1[N+](=O)[O-] | inconclusive: 13%
O=C(Cc1ccccc1O)N1CCC(N2CCCC(C(=O)N3CCCC3)C2)CC1 (stereo not given) | inconclusive: 15%
COc1cc(CN2CCCC(C(=O)c3cc(C)c(OC)c(C)c3)C2)cc(OC)c1O (stereo not given) | inconclusive: 15%
O=C(CCCn1cnc2ccccc2c1=O)NCc1c(F)ccc(F)c1F | inactive
CCC(C(=O)N1CCCCC1CC)c1ccccc1 (stereo not given) | inconclusive: 12%
Fc1ccc(N2CCCN(Cc3nc(-c4ccccn4)no3)CC2)cc1 | inconclusive: 12%
